Reference: US20160355503A1, “NITROGEN HEXACYCLE COMPOUNDS AS INHIBITORS OF p97 COMPLEX” (Cleave Biosciences, Inc., priority 2015, published 2016)

Tested on: Caco-2 cells

Structure (SMILES): CC(C)NCC(O)COc1ccc(CC(N)=O)cc1 (centres unmarked) [Atenolol]
- Peff A B, Range (pH 7.4 Caco-2, A to B): 0.69-1.80 ×E−6 cm/sec
- Peff B A, Range (pH 7.4 Caco-2, B to A): 1.69-2.68 ×E−6 cm/sec
